Results taken from patent US20150079090A1 (JOSAI UNIVERSITY, published 2015).
No constants are given. Whether binding was seen depends on the method and setting. Binding calls can cover weak binding; strength is not graded here. Ends that are not written are not given here.

Tests used:
histone H1 [1] = assay: ELISA in the same manner as Test Example 2
histone H3 [2] = assay: ELISA in the same manner as Test Example 2
histone H1 [3] = assay: ELISA, histone coated on plate, 5 ug/mL SSVmAb, absorbance at 405 nm
histone H2B = assay: as above
histone H3 [4] = assay: as above
histone H2A = assay: as above

binding (histone H1 [1]): binds
binding (histone H3 [2]): binds
binding (histone H1 [3]): binds
binding (histone H2B): binds
binding (histone H3 [4]): binds
binding (histone H2A): binds
B1: monoclonal antibody (SSVmAb) of Example 1, produced by hybridoma Mouse-Mouse hybridoma SSV-C 93-3 (NITE BP-972) (antibody, IgG1, V domains shown)
VH: EIQLQQSGAELVKPGASVKISCKASGYSFTGYNMNWVKQSHGKSLEWIGNINPYYGSTSYNQKFKGKATLTVDKSSSTAYMQLNSLTSEDSAVYYCARSPYYSNYWRYFDYWGQGTTLTVSS
VL: QIVLSQSPAILSASPGEKVTMTCRASSSVSYMHWYQQKPGSSPKPWIYATSNLASGVPARFSGSGSGTSYSLTISRVEAEDAATYYCQQWSSNPWTFGGGTKLEIK
notes: Mouse hybridoma antibody
